Not every detail of the peptide structures is certain; ends, links or a residue may be inferred.
System: osteoblast-like cells from fetal rat calvariae
Assay: Numbers of osteoblast-like cells in culture
Assay type: cell-based
Conditions: 10^-9 M; mean ± SD; control 4.2 ± 0.6

With `CC[C@H](C)[C@H](NC(=O)[C@H](C)NC(=O)CNC(=O)[C@H](Cc1ccccc1)NC(=O)[C@H](CC(N)=O)NC(=O)[C@H](CC(N)=O)NC(=O)[C@H](CO)NC(=O)[C@H](CO)NC(=O)[C@H](Cc1c[nH]cn1)NC(=O)[C@@H](NC(=O)[C@H](CC(C)C)NC(=O)[C@H](Cc1ccccc1)NC(=O)[C@H](CC(N)=O)NC(=O)[C@H](C)NC(=O)[C@H](CC(C)C)NC(=O)[C@H](CCCNC(=N)N)NC(=O)[C@H](CCC(N)=O)NC(=O)[C@@H](NC(=O)[C@H](C)NC(=O)[C@@H]1CSSC[C@H](NC(=O)[C@@H](N)CCCCN)C(=O)N[C@@H](CC(N)=O)C(=O)N[C@@H]([C@@H](C)O)C(=O)N[C@@H](C)C(=O)N[C@@H]([C@@H](C)O)C(=O)N1)[C@@H](C)O)C(C)C)C(=O)N[C@@H](CC(C)C)C(=O)N[C@@H](CO)C(=O)N[C@@H](CO)C(=O)N[C@H](C(=O)N[C@@H](CC(N)=O)C(=O)N[C@H](C(=O)NCC(=O)N[C@@H](CO)C(=O)N[C@@H](CC(N)=O)C(=O)N[C@H](C(=O)N[C@@H](Cc1ccc(O)cc1)C(N)=O)[C@@H](C)O)C(C)C)[C@@H](C)O` [human amylin] the “Osteoblast Numbers after 24 h culture” value was 6.1 ± 0.9 x10^4 cells/well.

— patent US5922677A, “Therapeutic method and compounds of use therein” (Auckland UniServices Limited, priority 1994, dated 1999)
